Earlier results on one molecule are cited in US4278797A, “Intermediates to phenylmorphans and method of preparation thereof” (priority 1980, dated 1981).

For the data set the following is noted: literature; cited from earlier work.

On to `CN1CC[C@]23c4c5ccc(O)c4O[C@H]2[C@@H](O)C=C[C@H]3[C@H]1C5` [Morphine], for which the physical dependence capacity entry is reported as “causes severe physical dependence”.
